Source: the supplement of paper PMC6411743
± gives the standard deviation of the averaged measurements. This is a selection; strong and weak results do not stand in their true shares.

Experiments:
Experiment in all cases: NP40-soluble protein abundance relative to vehicle (solubility fold change) (ratio); higher = more soluble protein in presence of AMP-PNP
ANKMY2 = biological target: T1, ANKMY2 (UniProt Q8IV38)
T1 sequence (whole entry): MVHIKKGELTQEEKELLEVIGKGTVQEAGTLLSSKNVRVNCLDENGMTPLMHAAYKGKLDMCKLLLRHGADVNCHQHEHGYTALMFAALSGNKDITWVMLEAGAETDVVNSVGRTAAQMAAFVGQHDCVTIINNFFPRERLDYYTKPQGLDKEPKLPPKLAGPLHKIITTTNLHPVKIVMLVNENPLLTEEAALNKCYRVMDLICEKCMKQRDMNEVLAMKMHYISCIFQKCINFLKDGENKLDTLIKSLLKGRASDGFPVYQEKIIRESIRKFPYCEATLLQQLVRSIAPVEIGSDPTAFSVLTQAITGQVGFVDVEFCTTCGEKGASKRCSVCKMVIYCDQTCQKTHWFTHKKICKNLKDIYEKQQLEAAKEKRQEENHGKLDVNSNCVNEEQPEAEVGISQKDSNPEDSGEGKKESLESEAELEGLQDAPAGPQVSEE
Summary of the method: (§1)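 Jurkat crude lysate prepared with a Dounce homogeniser was treated at eight concentrations spanning 0.1 to 10 mM, 10 min at room temperature then 3 min at 37 °C. Solubilisation with 0.8% NP40 and benzonase and ultracentrifugation preceded TMT labelling of the supernatant for LC-MS/MS. Fold change against the detergent-processed vehicle was determined per replicate from vsn-normalised intensities, across three independent experiments.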

CBR4 = biological target: T2, CBR4 (UniProt Q8N4T8)
T2 sequence (whole entry): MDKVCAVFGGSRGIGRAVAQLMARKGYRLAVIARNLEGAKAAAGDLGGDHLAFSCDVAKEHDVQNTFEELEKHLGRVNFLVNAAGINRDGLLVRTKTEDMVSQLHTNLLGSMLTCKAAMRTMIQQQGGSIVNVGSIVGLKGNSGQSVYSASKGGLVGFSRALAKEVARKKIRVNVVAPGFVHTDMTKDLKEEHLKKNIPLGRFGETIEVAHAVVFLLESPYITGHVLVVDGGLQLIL
Summary of the method: as §1

ISCA2 = biological target: T3, ISCA2 (UniProt Q86U28)
T3 sequence (whole entry): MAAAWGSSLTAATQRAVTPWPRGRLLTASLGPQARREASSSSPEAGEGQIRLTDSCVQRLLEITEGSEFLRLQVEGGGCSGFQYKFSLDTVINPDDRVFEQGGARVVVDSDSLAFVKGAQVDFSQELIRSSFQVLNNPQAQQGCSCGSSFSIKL
Summary of the method: as §1

KIAA0319L = biological target: T4, KIAA0319L (UniProt Q8IZA0)
T4 sequence (whole entry): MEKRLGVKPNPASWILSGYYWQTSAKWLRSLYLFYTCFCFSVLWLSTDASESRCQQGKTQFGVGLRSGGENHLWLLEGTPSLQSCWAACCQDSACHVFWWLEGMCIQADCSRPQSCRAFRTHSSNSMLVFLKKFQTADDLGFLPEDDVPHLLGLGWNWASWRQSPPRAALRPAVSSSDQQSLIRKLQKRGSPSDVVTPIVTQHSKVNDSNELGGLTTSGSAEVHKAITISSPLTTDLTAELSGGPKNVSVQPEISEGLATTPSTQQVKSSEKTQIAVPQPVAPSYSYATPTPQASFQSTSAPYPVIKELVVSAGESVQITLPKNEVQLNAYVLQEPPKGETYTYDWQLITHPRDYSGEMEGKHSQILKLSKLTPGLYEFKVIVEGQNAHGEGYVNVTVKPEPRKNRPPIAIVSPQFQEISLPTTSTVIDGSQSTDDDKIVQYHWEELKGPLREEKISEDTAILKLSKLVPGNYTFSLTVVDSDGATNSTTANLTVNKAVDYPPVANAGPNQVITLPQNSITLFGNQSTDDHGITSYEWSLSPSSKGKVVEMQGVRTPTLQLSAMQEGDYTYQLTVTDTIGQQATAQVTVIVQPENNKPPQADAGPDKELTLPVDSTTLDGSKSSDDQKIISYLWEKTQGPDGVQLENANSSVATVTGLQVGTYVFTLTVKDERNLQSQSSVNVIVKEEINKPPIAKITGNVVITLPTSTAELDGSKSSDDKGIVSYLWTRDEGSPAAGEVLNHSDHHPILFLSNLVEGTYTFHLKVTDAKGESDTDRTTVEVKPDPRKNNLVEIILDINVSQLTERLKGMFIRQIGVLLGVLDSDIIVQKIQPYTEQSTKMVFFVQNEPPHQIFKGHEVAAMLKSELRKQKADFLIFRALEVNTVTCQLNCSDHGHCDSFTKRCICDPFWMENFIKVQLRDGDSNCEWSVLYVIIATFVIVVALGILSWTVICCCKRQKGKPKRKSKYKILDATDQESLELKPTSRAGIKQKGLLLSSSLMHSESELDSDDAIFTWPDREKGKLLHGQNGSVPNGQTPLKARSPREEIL
Summary of the method: as §1

LNX2 = biological target: T5, LNX2 (UniProt Q8N448)
T5 sequence (whole entry): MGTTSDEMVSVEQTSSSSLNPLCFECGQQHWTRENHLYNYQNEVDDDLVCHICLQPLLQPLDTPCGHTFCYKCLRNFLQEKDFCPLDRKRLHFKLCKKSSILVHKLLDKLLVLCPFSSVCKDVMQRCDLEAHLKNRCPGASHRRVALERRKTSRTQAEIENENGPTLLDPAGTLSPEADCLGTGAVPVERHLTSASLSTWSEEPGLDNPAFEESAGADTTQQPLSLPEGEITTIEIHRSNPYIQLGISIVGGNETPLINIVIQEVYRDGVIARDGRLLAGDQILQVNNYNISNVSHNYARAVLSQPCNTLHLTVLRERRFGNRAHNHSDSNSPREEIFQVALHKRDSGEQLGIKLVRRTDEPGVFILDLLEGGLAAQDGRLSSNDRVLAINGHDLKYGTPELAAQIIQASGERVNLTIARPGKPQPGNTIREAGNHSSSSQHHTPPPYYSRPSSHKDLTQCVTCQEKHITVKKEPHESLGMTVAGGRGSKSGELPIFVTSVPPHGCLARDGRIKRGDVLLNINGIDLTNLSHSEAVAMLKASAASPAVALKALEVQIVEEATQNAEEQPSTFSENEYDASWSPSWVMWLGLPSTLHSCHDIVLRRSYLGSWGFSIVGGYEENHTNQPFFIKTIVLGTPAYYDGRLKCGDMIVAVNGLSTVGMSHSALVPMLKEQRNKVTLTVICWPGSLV
Summary of the method: as §1

Nc1ncnc2c1ncn2[C@@H]1O[C@H](COP(=O)(O)OP(=O)(O)NP(=O)(O)O)[C@@H](O)[C@H]1O [adenylyl imidodiphosphate]
NP40-soluble protein abundance (ANKMY2; concentration: 1mM): 0.994 ± 0.021 | NP40-soluble protein abundance (ANKMY2; concentration: 2mM): 0.972 ± 0.065 | NP40-soluble protein abundance (ANKMY2; concentration: 4mM): 0.945 ± 0.019 | NP40-soluble protein abundance (ANKMY2; concentration: 6mM): 0.938 ± 0.04 | NP40-soluble protein abundance (ANKMY2; concentration: 8mM): 0.905 ± 0.016 | NP40-soluble protein abundance (ANKMY2; concentration: 10mM): 0.914 ± 0.049 | NP40-soluble protein abundance (CBR4; concentration: 1mM): 0.971 ± 0.034 | NP40-soluble protein abundance (CBR4; concentration: 2mM): 0.957 ± 0.041 | NP40-soluble protein abundance (CBR4; concentration: 4mM): 1 ± 0.017 | NP40-soluble protein abundance (CBR4; concentration: 6mM): 1.01 ± 0.065 | NP40-soluble protein abundance (CBR4; concentration: 8mM): 1.02 ± 0.025 | NP40-soluble protein abundance (CBR4; concentration: 10mM): 1.01 ± 0.032 | NP40-soluble protein abundance (ISCA2; concentration: 1mM): 1.02 ± 0.041 | NP40-soluble protein abundance (ISCA2; concentration: 2mM): 1.08 ± 0.073 | NP40-soluble protein abundance (ISCA2; concentration: 4mM): 1.02 ± 0.04 | NP40-soluble protein abundance (ISCA2; concentration: 6mM): 1.01 ± 0.037 | NP40-soluble protein abundance (ISCA2; concentration: 8mM): 0.973 ± 0.036 | NP40-soluble protein abundance (ISCA2; concentration: 10mM): 0.987 ± 0.071 | NP40-soluble protein abundance (KIAA0319L; concentration: 1mM): 1.01 ± 0.014 | NP40-soluble protein abundance (KIAA0319L; concentration: 2mM): 1.03 ± 0.033 | NP40-soluble protein abundance (KIAA0319L; concentration: 4mM): 0.977 ± 0.025 | NP40-soluble protein abundance (KIAA0319L; concentration: 6mM): 0.969 ± 0.034 | NP40-soluble protein abundance (KIAA0319L; concentration: 8mM): 0.976 ± 0.017 | NP40-soluble protein abundance (KIAA0319L; concentration: 10mM): 0.9945 ± 0.0054 | NP40-soluble protein abundance (LNX2; concentration: 1mM): 0.991 ± 0.022 | NP40-soluble protein abundance (LNX2; concentration: 2mM): 0.996 ± 0.024 | NP40-soluble protein abundance (LNX2; concentration: 4mM): 0.983 ± 0.028 | NP40-soluble protein abundance (LNX2; concentration: 6mM): 1 ± 0.017 | NP40-soluble protein abundance (LNX2; concentration: 8mM): 1.01 ± 0.02 | NP40-soluble protein abundance (LNX2; concentration: 10mM): 0.988 ± 0.036
